To fix the notation:
B1: tRNA (parent)
chain: GUUCCGUUGGCGUAAUGGUAACGCGUCUCCCUCCUAAGGAGAAGACUGCGGGUUCGAGUCCCGUACGGAACG

This sample is rich in variants without activity.

Variants of B1 are the subject of the series. The series can be described thus: yeast fitness relative to wild type (ratio to wild type); higher = fitter; tRNA-Arg(CCU), competitive growth, 37 C, YPD. The procedure, abridged:
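Variants of the tRNA-Arg(CCU) gene were chemically synthesised with a 3% per-site mutation rate across 69 sites and placed at the native genomic locus in Saccharomyces cerevisiae. Six parallel replicates of the pooled strains were competed in YPD at 37°C for 24 hours, and gene amplicons from the start and end populations were read by 100-nucleotide paired-end sequencing. Darwinian fitness relative to wild type was derived from changes in genotype frequencies. Genotypes required ≥ 100 starting reads, and estimates < 0.5 were set to 0.5.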
Consider GUACCGUUGGGGUCAUGGUAACGGGUCUCCCUCCUAAGGAGAAGACUGCGGGUUCGAAUCCCGUACGGAACG [U3A C11G A14C C24G G58A], for which the yeast fitness is not above 0.5. The same measure for GUUGCGUUGGCGUAAUGGUAACGCCUCUCGCUCCUAAGGAGAAGACUGCGGGUUCGACACCGGUACGGAACG [C4G G25C C30G G58C U59A C62G]: not above 0.5; for GUUCCGUUGGUGUAAAGGUAACGCGUCUCCCUCCUAAGGAGAAGACUGCGGGUCCGAGUCCCGUACGGAACG [C11U U16A U54C]: not above 0.5; for GUUCCGUUGGCGUAAUGGAAAAGCGUCUCCCUCCUAUCGAGAAGACUGCGGGAUCGAGUCCCGUACGGAACG [U19A C22A A37U G38C U53A]: not above 0.5.

Consider GCUCCGUUAGCGUAAUGGUAACGCGUCUCCCUCUUAAGAAGAAGACUGCGGGUUCGAGUCCUGUACGGAACG [U2C G9A C34U G39A C62U], for which the yeast fitness is not above 0.5. Take GUUCCGUUGGCGUAAUGGUAACGCGUCUUCCCCCUAAGGAGAAGACUGCGGGUUCGAGUGCCGUACGGAACG [C29U U32C C60G]: the yeast fitness was not above 0.5. For the variant GUUCCGUUGGCGUUAUGGUAACGCGUCUCCCUCCUAACGAGAAGACAGCGGGUUCGAGUCCCGUACGGUACG [A14U G38C U47A A69U], the yeast fitness is not above 0.5. Next, GUUCUGUUGGCGUAAUGGUAACGCGUCUCCCUCCUAAGGAGAAGACUGCGGGUUCGAGUCCCGUACGGAUCG [C5U A70U]: 0.98.

With GUUCCGUUGGCGUUAUGGUAACGCGUCUCCCUCCUAAGGAGAAGUCUGCGGGUUCGAGUCCCGUACGCAACG [A14U A45U G68C], the yeast fitness was not above 0.5. For GUUCCAUUGGCGUAAUGGUGACGCGUCUCGCUCCAAAGGAGAAGACUGCAGGUUCGAGUCCCGUACGGAACG [G6A A20G C30G U35A G50A], the yeast fitness was not above 0.5. The same measure for GUUUCGUUGGCGUAAUGGUUACGCGUGUCGCUCCUAAGGAGAGGACUGCGGGUUCGAGUCCCGUAUGGAACG [C4U A20U C27G C30G A43G C66U]: not above 0.5; for GUUCAGUUGGCGUAAUGGUAACGCGGCUCCCUCCUAAGGAGAAGACUGCGGGUUCGAGUGUCGUACGGAACG [C5A U26G C60G C61U]: not above 0.5; for GUUCCGUUGGCGUAAUGGUAACGCGUCCCCCUCCUCAGGAGAAGACUGCGGGUUCGAGUCCCGUACGGAACG [U28C A36C]: 0.579. The same measure for GUUCCGUUGGCGUAAUGGUAGCGCGUCUCCAUCCUAAGGAGGAGACUGCGGGUUCGUGUCCCGUACGGAACG [A21G C31A A42G A57U]: not above 0.5; for GGUUCGUUGGCGUAAUGGUCACGCGUCUCGCUCCUAAGGAGAAGACUGCGGGUUCGAGUCCCGUACGGAACG [U2G C4U A20C C30G]: not above 0.5; for GUUUCGUUGGUGUAAUGGUAACCCGUCUCCCUCCUAUGGAGAAAACUGCGGGUUCGAGUCCCGUACGGAACG [C4U C11U G23C A37U G44A]: not above 0.5. Next, GUUCAGUUCGCGGAAUGGUAACGCGUCCCCCUCCUAAGGACACGUCUGGGGGGUCGAGUCCCGUACGGCACG [C5A G9C U13G U28C G41C A43C A45U C49G U53G A69C]: not above 0.5. For GUUCCGUUGGCGUAAUGGUAACGCGUCUCCCUCCUAAGGAGAAGACUGCGGGGUCGCGUCCCGUACGGAUCG [U53G A57C A70U], the yeast fitness was not above 0.5. The same measure for GUUCCGUUGGCGUAAUGGUAACGCGUCUCCAUCCUAAGGAGAAGACUGCGGGUUCUAGUCCCGUACAGACCG [C31A G56U G67A A70C]: not above 0.5; for GUUCCGUUGGCGUAAUGGUAUCGCGUCUCUCUCCUAAGGAGAAGACUGCGGGUUCGAGUCCGGUACGGAACG [A21U C30U C62G]: not above 0.5; for GUUCCGUUAGCGUAAUGGUAACGCGUCUCCCUCCUAAGGAGAAGACUGCGGGUUCGAGUCCCGUGCGCAACG [G9A A65G G68C]: 0.594.

For GUUCCGUUAGCGUAAUGGUAACGCGUCUCCCUCCUGAGGAGAAGACUGCGGGUUCGAGUCUCCUACGGAACG [G9A A36G C61U G63C], the yeast fitness was not above 0.5. The same measure for GUUCCGUUGGCGUAAGGGUAACGUGUCUCCGUGCUAAGGAGAAGACUGCGGGUUCGAGUCCAGUACGGAACG [U16G C24U C31G C33G C62A]: not above 0.5; for GUUCCGUUGGCGUACUGGUAACGCGUCUCCCUCCUAAGGAGAAGACGGCGGAUUCGAGUCCCGUACGGAACG [A15C U47G G52A]: not above 0.5. Next, GUUUCGUUGGCGUAAUGGUAAGGCGUCACCCUCCUUAGGAGAAGACUGCGGGUUCGAGUCCCGUACGGAACG [C4U C22G U28A A36U]: not above 0.5; GUUACGUUGGAGUAAUGGUAACGCGUCUCCCUCCUAAGGGGAAGACUGCGGGUACGAGUCCCGUACGGAACG [C4A C11A A40G U54A]: not above 0.5; GUUCCGUUGGCGUAGAGGUAACGCGUCUCCCUCCUAACGAGAAGACUGCGGGUUCGAGUCCGGUACGGAACG [A15G U16A G38C C62G]: not above 0.5. Next, GUUCCGUUGGCGUAAUGGUGACGCGUAUCCCUCCUAAGGAGAAGAAUGCGGGUUCGAGUCCGGUACCGAACG [A20G C27A C46A C62G G67C]: not above 0.5; GUUCCGUUGGCGUAAUGGUAACGCGUCUCCCUCCUAAGGAGAAGACUGGGGGUUUGAGUCCCGUUCGGAACG [C49G C55U A65U]: not above 0.5. Take GUUCCGUUGGCAUAAUGGUAACGCGUCUCCCUCCUAAGGAGAAGACUGCGGAUUCGAGUCCCGUACGGAACG [G12A G52A]: the yeast fitness was 0.688.

On to GUUCCCUUGGCGUAAUGGUAACGCGUUACCCACUUCAGGAGAAGACUGCGGGUUAGAGUCCCGUACGGAACG [G6C C27U U28A U32A C34U A36C C55A], for which the yeast fitness is not above 0.5.

For the variant GUUCCGUUGCCGUAAUGGUAACGCGUCUCCCUCCUAUGGAGAAGGCUGCGGGUUCGAGUCCCGUACGGAACG [G10C A37U A45G], the yeast fitness was not above 0.5. Take GUUCCGUUGGCGUAAUGGUAACGCGUCUCCCUCAUAAGGAGACGACUGCGGGUUCGAGUCCCGUACCGAACG [C34A A43C G67C]: the yeast fitness was not above 0.5.

GUUCUGUUGGCGUAGUGGUAACGCGUAUCCCUCCUAAGGAGAAGAAUGCGGGUUAGAGUCCCGUACGGAACG [C5U A15G C27A C46A C55A]: the yeast fitness is not above 0.5. The same measure for GUUCCGUUGGCGUAAUGGUAACGCGUCUCACUCCUAAGGAGAAGACUGGGGGUUAGAGUCCCGUACGGAACG [C30A C49G C55A]: not above 0.5; for GUUCCGUUGGCGUAAUGAUAACGCGUUUCCAUCCUAAGGAGAAGACUGUGGGUUCGAGUCCCGUACGGAACG [G18A C27U C31A C49U]: not above 0.5.

Regarding GUUCCGUUGGCGACAUGGUAAAGCGUCUCCCUCCUAAGGAGACGACUGCGGGUUCGAGUCCCGUACGGAACG [U13A A14C C22A A43C], the yeast fitness is not above 0.5. With GUUCCGUUGGCGUAAUGGUAACGCGUCUCCCUCCUAAGGAGAAGAGUGCGGGUUCGAGUACCGUACUGAACG [C46G C60A G67U], the yeast fitness amounted to 0.536.

For the origin of these results see the RNAGym collection of RNA variant scans (doi:10.1126/science.aae0568).
